# These are yes or no findings as the source states them, for the method shown. Binding can be weak; no strength is given.
# The chains behind the UniProt entries cited, without tags or fusion partners. Where a name states a change or a piece, a line headed by the entry shows the natural chain unless it says otherwise.
# UniProt Q8Y610: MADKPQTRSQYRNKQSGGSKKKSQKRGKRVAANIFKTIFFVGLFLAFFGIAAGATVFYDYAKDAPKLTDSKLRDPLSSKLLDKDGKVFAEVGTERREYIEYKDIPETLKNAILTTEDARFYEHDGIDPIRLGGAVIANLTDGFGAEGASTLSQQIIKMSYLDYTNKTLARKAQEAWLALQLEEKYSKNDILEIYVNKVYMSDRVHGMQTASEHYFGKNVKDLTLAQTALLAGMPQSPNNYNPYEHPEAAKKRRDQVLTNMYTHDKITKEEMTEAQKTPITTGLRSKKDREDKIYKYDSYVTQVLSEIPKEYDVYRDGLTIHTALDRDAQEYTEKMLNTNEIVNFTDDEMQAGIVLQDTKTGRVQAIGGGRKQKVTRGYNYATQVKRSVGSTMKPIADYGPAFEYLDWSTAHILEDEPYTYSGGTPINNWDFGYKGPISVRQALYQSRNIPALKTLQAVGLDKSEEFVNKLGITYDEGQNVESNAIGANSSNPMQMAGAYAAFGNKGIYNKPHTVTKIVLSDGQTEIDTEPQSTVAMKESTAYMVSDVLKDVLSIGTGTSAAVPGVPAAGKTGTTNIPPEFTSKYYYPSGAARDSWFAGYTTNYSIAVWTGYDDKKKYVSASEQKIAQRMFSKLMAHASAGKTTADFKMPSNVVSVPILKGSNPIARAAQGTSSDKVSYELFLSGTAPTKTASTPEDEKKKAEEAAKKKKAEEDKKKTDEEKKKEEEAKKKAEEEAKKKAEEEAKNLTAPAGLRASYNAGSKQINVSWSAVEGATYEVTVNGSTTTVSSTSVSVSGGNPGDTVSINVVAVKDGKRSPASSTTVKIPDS
# UniProt Q8Y614: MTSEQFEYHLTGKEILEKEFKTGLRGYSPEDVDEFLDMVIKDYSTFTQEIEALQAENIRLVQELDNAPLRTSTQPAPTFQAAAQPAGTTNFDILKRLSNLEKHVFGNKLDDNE
# Target: T25-PBPA1ΔGT-TP (L. monocytogenes) (UniProt Q8Y610)
# Assay: two-hybrid; BACTH (L. monocytogenes proteins) in E. coli BTH101; LB agar with X-Gal and IPTG, photographs after 24 and 48 h at 30 °C
substance,measurement,value
LmGpsB (BACTH fusion) (from UniProt Q8Y614 1-113),binding,binds
